Results: PubChem BioAssay AID1508600 (Functional Genomics Laboratory (NCATS/FGL), 2020)
The whole screen tested about 53,000 sequences, of which about 3,700 (7%) were called active.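 The calls were made as follows: active = gene knockdowns whose robust z-score for IL-1 alpha signal is at least 2 or at most -2, so actives lie on both sides; inactive = the rest.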 Some of the results follow.

assay: Components of the Cytosolic LPS Sensing Pathway: Gene Identification via Genome-wide siRNA Screen; settings: RAW264.7 macrophages, IL-1a HTRF, actives lie on both sides, screened at 100 nM (by protocol), cells primed 5 h with Pam3CSK4 first;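 also: robust z of the log signal after scaling to non-targeting control siRNA wells of the plate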
Outline: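 Read-out: IL-1a HTRF on supernatant, divided by plate negative-control median ×100, log-transformed and converted to robust z-score. Cells were RAW264.7 given 100 nM siRNA, Pam3CSK4-primed 5 hours, then LipidA-transfected 24 hour.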

| Sequence | z-score |
| --- | --- |
| GGGCCUAAAUGUGAAACACTT against Src | inactive: -0.222 |
| GGUAUGGAGUGAAGUGACCTT against Mmp11 | inactive: -1.37 |
| GGGCAACUGUACGUACCAUTT against Cd93 | inactive: 0.0137 |
| GGUCACAGAUAAGAAUGACTT against Cd96 | inactive: 0.692 |
| GGCUUCUACCUUCGAGACUTT against Carns1 | active: -2.3 |
| GCAUCAACUCCUGAGCUCUTT against Cenpx | inactive: -1.5 |
| GCAAAUGUCUCUUCAGUGATT against Olfr885 | inactive: 0.996 |
| GGCAGAGGCUGACUUCUACTT against Kctd11 | inactive: 0.698 |
| GCAGUGUGAUGGGACUGUATT against Aga | inactive: 0.08 |
| CGUAAGAUUGACUCUAGUATT against Prl6a1 | inactive: 0.326 |
| GCUGGUCUUUCAAGUCAAGTT against Stat5b | active: 2.62 |
| GCCGUUUAAACAGUUCAACTT against Tifa | inactive: 0.624 |
| CGGCCGUAUGAAGAAGAUATT against Phactr1 | inactive: -0.694 |
| CGACGGAGUCAGUUAAAACTT against Psmd12 | inactive: -0.204 |
| GCUGCCUCCUUAGGUGUUATT against A930018P22Rik | inactive: 0.294 |
| GGAGAGAUGGAUGGAAAAATT against Klk1b7-ps | inactive: -0.925 |
| GCUGAUUAAUGAAGAAGCUTT against Kpna6 | inactive: 1.9 |
| GGAAGAAGCAGAAGAACAUTT against Rpl12 | active: 2.55 |
| CCAAGGGUUAAGUCUUCAUTT against Zranb1 | inactive: 0.738 |
| GGAUUUUCCAUUUCUUCACTT against Tubgcp4 | inactive: -0.924 |
| CCGUGAUGGACAUCUAUUCTT against Kctd18 | inactive: 0.256 |
| GCUACAGUCGUUGUUUGAATT against Serpinf1 | inactive: 1.53 |
| GGAUUCGUUCAGCUAAGGGTT against Olfr1023 | inactive: 1.29 |
| GGUCUUAGCUGUCCUCAAGTT against Olfr273 | inactive: -0.811 |
| CCUUCCUGUUGUCAUGAGATT against Eipr1 | inactive: -0.868 |
| GGCUAUGUUUCAGAAUAUGTT against Sohlh2 | inactive: -0.541 |
| GGACUUAAUCAACCUAACCTT against Sgms1 | inactive: -1.44 |
| GCAACAUAUGGUAUACUGUTT against Mdm4 | inactive: 1.41 |
| GGAAGGGCCACUUAAUGCUTT against Zzz3 | inactive: 1.12 |
| GGAGCAUCCCUACGAUGCATT against Atp6v1f | inactive: 0.349 |

Quoted from the listing.
Under z-score, GGAAGAAGCAGAAGAACAUTT against Rpl12 is entered as active: 2.55
Under z-score, CCAAGGGUUAAGUCUUCAUTT against Zranb1 is entered as inactive: 0.738
